Reference: the supplement of paper PMC10849652
The other results are listed elsewhere or left out.

By UniProt entry, the sequences of proteins in these tests, tags left out. Where a name states a change or a piece, a line headed by the entry shows the natural chain unless it says otherwise.
UniProt O75381, whole entry, looked up: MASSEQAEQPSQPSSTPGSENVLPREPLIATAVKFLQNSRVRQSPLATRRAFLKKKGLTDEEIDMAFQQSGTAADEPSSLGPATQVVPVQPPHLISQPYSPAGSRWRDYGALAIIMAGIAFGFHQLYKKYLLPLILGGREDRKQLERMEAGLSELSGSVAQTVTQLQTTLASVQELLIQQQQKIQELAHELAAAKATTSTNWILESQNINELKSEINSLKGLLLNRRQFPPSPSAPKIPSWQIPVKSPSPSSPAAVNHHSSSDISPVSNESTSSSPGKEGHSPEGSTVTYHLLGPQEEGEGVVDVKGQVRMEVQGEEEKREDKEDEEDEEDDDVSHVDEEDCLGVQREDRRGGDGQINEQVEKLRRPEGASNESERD
UniProt Q96GD0: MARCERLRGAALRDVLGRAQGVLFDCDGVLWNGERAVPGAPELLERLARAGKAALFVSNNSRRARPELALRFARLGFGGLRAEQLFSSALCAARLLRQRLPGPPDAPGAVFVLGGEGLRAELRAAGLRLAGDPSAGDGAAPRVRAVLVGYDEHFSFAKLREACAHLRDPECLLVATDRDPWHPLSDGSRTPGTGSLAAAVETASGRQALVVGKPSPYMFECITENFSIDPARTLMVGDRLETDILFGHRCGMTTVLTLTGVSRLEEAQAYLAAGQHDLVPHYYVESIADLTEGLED
UniProt Q9BUL8: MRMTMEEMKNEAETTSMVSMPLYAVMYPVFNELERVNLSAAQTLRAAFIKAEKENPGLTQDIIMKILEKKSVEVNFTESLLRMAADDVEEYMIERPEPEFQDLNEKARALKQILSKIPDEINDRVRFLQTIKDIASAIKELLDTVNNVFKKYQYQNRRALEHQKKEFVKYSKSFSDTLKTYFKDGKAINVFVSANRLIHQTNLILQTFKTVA
UniProt Q9Y5Y5: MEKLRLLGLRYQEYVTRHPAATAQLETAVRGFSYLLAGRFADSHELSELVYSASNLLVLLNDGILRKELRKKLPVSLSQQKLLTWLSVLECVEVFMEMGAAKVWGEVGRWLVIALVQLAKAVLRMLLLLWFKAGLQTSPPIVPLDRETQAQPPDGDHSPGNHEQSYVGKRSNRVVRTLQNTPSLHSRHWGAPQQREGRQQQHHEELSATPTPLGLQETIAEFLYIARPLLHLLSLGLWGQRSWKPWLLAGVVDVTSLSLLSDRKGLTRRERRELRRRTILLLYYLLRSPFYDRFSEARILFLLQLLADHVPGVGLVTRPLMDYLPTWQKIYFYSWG
UniProt Q9H6A9: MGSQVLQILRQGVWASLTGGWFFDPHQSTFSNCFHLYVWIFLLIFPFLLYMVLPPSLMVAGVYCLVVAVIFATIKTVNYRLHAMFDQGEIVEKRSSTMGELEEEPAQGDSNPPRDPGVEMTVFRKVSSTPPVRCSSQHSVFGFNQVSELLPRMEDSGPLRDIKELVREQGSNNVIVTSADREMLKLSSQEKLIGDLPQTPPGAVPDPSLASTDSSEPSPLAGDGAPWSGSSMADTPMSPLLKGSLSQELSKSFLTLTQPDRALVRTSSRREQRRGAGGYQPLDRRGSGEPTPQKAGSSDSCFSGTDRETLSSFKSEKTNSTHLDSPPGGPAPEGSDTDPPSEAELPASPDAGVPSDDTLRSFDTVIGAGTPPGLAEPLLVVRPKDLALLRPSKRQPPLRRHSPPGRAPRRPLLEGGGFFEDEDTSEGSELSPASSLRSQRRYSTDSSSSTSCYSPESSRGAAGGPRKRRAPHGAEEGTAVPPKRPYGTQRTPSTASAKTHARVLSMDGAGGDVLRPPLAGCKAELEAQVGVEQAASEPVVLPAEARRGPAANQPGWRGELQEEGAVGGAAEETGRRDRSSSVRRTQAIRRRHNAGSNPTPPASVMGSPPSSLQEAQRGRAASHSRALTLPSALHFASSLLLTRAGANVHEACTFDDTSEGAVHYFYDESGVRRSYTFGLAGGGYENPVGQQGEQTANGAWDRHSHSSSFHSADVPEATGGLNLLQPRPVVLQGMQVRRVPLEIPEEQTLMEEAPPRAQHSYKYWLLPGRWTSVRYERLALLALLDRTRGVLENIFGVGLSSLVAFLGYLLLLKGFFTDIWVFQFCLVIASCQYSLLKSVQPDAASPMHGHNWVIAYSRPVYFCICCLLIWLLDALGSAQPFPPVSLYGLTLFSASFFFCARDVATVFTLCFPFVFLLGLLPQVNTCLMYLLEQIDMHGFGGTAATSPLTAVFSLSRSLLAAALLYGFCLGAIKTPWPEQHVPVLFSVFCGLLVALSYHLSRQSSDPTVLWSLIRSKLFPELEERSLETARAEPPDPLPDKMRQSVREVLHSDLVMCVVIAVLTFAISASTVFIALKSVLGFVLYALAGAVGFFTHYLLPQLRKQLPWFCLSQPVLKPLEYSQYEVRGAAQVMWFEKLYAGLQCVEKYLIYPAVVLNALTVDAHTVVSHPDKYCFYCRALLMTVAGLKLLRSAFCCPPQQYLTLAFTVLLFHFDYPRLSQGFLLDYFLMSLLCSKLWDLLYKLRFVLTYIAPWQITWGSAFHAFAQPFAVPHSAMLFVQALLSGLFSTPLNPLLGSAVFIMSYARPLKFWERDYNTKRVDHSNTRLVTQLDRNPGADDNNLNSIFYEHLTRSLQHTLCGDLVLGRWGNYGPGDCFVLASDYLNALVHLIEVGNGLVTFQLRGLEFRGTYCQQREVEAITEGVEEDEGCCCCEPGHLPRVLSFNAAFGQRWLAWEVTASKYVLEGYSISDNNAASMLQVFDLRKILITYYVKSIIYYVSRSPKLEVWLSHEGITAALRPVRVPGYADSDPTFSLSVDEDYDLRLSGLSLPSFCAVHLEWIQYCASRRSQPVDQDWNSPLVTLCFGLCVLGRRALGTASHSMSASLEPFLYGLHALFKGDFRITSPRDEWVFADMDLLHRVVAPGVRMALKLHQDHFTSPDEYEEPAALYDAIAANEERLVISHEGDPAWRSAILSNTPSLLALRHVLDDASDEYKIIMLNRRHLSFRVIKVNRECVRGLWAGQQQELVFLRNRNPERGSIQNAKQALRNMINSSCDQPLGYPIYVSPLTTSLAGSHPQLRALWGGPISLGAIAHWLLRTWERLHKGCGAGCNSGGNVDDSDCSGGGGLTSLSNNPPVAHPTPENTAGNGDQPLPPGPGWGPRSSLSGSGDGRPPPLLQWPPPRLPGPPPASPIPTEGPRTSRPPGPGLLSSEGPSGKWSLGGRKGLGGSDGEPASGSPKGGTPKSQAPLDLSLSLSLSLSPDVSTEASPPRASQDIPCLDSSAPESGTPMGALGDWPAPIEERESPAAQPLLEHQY
UniProt P11177, whole entry, looked up: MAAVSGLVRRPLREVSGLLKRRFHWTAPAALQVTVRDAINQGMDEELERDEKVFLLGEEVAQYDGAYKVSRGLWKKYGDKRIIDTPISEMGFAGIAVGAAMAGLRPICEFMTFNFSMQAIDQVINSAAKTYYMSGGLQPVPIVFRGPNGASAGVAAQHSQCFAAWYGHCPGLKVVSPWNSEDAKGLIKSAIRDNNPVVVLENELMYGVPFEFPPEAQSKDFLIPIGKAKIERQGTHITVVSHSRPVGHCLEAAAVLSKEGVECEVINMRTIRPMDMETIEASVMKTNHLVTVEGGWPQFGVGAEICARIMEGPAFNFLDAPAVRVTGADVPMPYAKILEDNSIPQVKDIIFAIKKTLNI
UniProt P57721, whole entry, looked up: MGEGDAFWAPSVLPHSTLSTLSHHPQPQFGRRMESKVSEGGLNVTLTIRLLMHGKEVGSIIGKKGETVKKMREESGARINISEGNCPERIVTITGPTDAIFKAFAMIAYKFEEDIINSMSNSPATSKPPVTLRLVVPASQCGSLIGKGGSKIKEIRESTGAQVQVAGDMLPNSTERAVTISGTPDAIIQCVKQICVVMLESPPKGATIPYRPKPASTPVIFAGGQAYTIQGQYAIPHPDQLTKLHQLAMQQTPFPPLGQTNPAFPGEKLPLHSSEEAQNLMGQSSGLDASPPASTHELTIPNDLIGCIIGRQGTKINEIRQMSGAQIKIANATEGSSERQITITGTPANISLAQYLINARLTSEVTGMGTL
UniProt Q8WW12: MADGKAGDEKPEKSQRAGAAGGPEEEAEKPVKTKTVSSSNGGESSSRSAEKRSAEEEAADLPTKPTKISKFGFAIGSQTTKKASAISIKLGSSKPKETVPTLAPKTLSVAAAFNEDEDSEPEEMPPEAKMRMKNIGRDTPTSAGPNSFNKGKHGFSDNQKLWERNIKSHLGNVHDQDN
UniProt Q9UBV8: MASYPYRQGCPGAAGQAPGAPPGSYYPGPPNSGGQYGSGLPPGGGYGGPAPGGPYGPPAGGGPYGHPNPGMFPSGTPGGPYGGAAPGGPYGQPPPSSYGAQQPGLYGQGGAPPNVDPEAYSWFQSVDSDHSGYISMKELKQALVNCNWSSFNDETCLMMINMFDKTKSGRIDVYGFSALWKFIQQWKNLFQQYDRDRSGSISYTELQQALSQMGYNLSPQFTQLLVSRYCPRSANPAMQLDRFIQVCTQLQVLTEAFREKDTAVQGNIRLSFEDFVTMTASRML
UniProt P16118: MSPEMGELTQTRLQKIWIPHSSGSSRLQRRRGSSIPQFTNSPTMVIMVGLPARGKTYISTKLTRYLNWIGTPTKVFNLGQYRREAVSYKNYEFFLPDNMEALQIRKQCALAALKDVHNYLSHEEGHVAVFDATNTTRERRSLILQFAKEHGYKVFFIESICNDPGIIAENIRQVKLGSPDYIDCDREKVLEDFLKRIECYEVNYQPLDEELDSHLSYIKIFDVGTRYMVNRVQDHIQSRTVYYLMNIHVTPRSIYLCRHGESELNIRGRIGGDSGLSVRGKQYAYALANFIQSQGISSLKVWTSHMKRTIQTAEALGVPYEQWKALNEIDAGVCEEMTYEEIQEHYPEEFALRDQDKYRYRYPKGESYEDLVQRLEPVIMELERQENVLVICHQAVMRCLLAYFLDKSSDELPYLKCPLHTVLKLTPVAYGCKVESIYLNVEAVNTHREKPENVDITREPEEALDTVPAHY
UniProt P0DJ07: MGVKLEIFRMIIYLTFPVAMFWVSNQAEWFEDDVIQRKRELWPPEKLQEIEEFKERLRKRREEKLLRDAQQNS
UniProt Q15121, whole entry, looked up: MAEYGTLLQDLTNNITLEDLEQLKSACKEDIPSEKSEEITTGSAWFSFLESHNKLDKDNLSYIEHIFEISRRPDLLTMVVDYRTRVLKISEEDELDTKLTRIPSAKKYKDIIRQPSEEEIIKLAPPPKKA
UniProt P30101, whole entry, looked up: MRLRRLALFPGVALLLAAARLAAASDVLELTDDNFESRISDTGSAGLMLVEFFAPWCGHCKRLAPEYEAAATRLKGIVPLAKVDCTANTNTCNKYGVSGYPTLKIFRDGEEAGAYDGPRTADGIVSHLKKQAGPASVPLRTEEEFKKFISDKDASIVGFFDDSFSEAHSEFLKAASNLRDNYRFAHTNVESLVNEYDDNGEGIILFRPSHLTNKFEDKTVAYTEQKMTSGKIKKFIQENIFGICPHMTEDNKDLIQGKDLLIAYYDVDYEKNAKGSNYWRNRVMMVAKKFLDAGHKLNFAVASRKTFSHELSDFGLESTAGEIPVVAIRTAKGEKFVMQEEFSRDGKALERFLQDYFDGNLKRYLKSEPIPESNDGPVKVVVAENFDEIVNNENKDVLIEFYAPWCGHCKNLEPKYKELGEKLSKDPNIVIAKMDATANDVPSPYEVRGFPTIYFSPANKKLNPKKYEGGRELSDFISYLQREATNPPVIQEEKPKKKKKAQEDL
UniProt Q15366, whole entry, looked up: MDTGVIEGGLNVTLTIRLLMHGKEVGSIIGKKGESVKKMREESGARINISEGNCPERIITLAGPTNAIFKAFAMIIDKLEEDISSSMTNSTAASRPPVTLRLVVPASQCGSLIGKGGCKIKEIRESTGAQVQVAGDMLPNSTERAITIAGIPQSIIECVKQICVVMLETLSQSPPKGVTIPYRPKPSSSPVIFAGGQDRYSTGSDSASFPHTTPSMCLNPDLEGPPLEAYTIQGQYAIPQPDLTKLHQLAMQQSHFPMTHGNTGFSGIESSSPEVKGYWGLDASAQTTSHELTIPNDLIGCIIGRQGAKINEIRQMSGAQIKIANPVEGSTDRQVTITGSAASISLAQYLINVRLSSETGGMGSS
UniProt Q86SE9: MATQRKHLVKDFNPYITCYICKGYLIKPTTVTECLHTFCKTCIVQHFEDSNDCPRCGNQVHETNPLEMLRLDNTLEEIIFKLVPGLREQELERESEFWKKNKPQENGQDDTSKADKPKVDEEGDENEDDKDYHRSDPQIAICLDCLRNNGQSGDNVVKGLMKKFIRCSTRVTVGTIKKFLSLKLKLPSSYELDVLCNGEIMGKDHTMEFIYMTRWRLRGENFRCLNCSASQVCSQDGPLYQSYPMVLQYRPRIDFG
UniProt O00628: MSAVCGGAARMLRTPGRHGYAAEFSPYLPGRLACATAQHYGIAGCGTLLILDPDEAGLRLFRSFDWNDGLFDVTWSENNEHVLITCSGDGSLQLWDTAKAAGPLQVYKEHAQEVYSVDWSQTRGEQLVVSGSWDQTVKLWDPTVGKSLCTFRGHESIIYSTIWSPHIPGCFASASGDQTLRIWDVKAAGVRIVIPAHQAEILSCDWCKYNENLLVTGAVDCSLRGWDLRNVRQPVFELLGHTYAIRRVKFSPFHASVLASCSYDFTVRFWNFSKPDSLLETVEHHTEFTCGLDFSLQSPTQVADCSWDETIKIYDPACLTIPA

These targets were tested with Cc1sc2c(c1C)C(c1ccc(Cl)cc1)=N[C@@H](CC(=O)OC(C)(C)C)c1nnc(C)n1-2 (assay: log2 fold change, soluble protein after heating vs DMSO (PISA); higher = thermal stabilisation; K562 lysate, 10 uM; active = over 0.2 and 3.5 SD of the protein, either way, in both replicates (recomputed)).
How it was run: (§1)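 The values are log-two fold changes in thermal stability compared with solvent controls and come from duplicates. They were obtained by TMTpro 16plex LC-MS/MS, with channel sums equalised, on the supernatant after 21,000xg for 90 min. That supernatant came from crude K562 extract at 1 mg/mL protein treated with 10 μM compound for 30 min, heated for 3 min across 48°C-58°C, pooled and brought to 0.5% NP-40 at 4°C.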

Target | log2 fold change
PARP9 (UniProt Q8IXQ6) | inactive: 0.123
PDK1 (UniProt Q15118) | inactive: 0.107
PEX14 (UniProt O75381) | inactive: -0.014
PFKL isoform 2 (UniProt P17858) | inactive: -0.014
PDXP (UniProt Q96GD0) | inactive: 0.009
PEPD (UniProt P12955) | inactive: 0
PATL1 (UniProt Q86TB9) | inactive: 0.031
PDCD10 (UniProt Q9BUL8) | inactive: -0.042
PARP14 (UniProt Q460N5) | inactive: -0.028
PCYOX1 (UniProt Q9UHG3) | inactive: 0.022
PEX16 isoform 2 (UniProt Q9Y5Y5) | inactive: 0.016
PCNX3 (UniProt Q9H6A9) | inactive: -0.013
PDHB (UniProt P11177) | inactive: 0.026
PCBP3 (UniProt P57721) | inactive: 0.021
PDHX (UniProt O00330) | inactive: 0.013
PCM1 (UniProt Q15154) | inactive: -0.002
PBXIP1 (UniProt Q96AQ6) | inactive: -0.016
PFKFB2 (UniProt O60825) | inactive: -0.001
PCNP (UniProt Q8WW12) | inactive: -0.014

Target | log2 fold change
PEF1 (UniProt Q9UBV8) | inactive: 0.048
PFKFB1 (UniProt P16118) | inactive: -0.054
PDIA4 (UniProt P13667) | inactive: 0.002
PCNT (UniProt O95613) | inactive: -0.035
PET100 (UniProt P0DJ07) | inactive: 0.06
PEA15 isoform 2 (UniProt Q15121) | inactive: -0.072
PDS5A (UniProt Q29RF7) | inactive: -0.011
PDIA3 (UniProt P30101) | inactive: 0.015
PCBP2 isoform 8 (UniProt Q15366) | inactive: -0.044
PCF11 (UniProt O94913) | inactive: 0.008
PCBD1 (UniProt P61457) | inactive: -0.034
PFKM isoform 3 (UniProt P08237) | inactive: 0.007
PDSS2 (UniProt Q86YH6) | inactive: 0.01
PGD (UniProt P52209) | inactive: -0.005
PCGF5 (UniProt Q86SE9) | inactive: 0
PEX7 (UniProt O00628) | inactive: -0.096
PCYT1B (UniProt Q9Y5K3) | inactive: -0.03
PCBP2 (UniProt F8W0G4) | inactive: 0.103

Each target was assayed with c1ccc([C@@H]2C[C@H]2NC2CCNCC2)cc1 in the same assay as above.
How it was run: as §1

Target | log2 fold change
PDK1 (UniProt Q15118) | inactive: 0.062
PEX14 (UniProt O75381) | inactive: 0.01
PFKL isoform 2 (UniProt P17858) | inactive: -0.005
PDXP (UniProt Q96GD0) | inactive: -0.027
PEPD (UniProt P12955) | inactive: -0.017
PATL1 (UniProt Q86TB9) | inactive: 0.043
PDCD10 (UniProt Q9BUL8) | inactive: -0.064
PARP14 (UniProt Q460N5) | inactive: -0.045
PCYOX1 (UniProt Q9UHG3) | inactive: -0.002
PEX16 isoform 2 (UniProt Q9Y5Y5) | inactive: 0.093
PCNX3 (UniProt Q9H6A9) | inactive: 0.121
PDHB (UniProt P11177) | inactive: 0.063
PCBP3 (UniProt P57721) | inactive: 0
PDHX (UniProt O00330) | inactive: 0.053
PCM1 (UniProt Q15154) | inactive: 0.026
PBXIP1 (UniProt Q96AQ6) | inactive: -0.022
PFKFB2 (UniProt O60825) | inactive: -0.008

Target | log2 fold change
PCNP (UniProt Q8WW12) | inactive: -0.058
PEF1 (UniProt Q9UBV8) | inactive: -0.031
PFKFB1 (UniProt P16118) | inactive: 0.096
PDIA4 (UniProt P13667) | inactive: 0.037
PCNT (UniProt O95613) | inactive: -0.09
PET100 (UniProt P0DJ07) | inactive: 0.151
PEA15 isoform 2 (UniProt Q15121) | inactive: -0.032
PDS5A (UniProt Q29RF7) | inactive: 0.019
PDIA3 (UniProt P30101) | inactive: 0.033
PCBP2 isoform 8 (UniProt Q15366) | inactive: -0.101
PCF11 (UniProt O94913) | inactive: 0.079
PCBD1 (UniProt P61457) | inactive: -0.065
PFKM isoform 3 (UniProt P08237) | inactive: -0.01
PDSS2 (UniProt Q86YH6) | inactive: 0.033
PGD (UniProt P52209) | inactive: 0.05
PEX7 (UniProt O00628) | inactive: 0.031
PCYT1B (UniProt Q9Y5K3) | inactive: -0.073
